Source: article PMC7997893
No constants are given. Whether binding was seen depends on the method and setting. In cells and extracts the contact can be indirect. Some binding calls cover weakened binding; strength is not graded here.

Chains of the proteins cited; added tags and fusions are not shown.
UniProt Q96EB6: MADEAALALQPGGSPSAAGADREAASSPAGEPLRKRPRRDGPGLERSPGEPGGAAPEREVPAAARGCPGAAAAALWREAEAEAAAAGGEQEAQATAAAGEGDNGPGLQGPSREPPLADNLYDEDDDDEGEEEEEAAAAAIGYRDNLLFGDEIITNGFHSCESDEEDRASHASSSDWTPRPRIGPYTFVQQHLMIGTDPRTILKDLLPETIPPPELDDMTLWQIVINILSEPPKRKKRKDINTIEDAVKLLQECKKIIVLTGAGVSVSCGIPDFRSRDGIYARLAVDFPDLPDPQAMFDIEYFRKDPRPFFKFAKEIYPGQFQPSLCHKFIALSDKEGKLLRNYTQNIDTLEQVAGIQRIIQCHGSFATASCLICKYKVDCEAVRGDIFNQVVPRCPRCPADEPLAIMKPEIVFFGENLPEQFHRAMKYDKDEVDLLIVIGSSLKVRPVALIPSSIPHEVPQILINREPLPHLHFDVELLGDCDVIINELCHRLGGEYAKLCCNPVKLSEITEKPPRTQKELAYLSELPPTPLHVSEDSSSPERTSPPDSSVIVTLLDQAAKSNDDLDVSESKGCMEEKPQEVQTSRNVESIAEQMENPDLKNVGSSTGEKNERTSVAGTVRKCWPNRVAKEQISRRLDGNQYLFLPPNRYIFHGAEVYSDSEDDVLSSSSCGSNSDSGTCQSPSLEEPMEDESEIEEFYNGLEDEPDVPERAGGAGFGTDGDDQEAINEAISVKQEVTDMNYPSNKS

T1: Sirtuin 1 (Sirt1), endogenous in AML12 cells (mouse (endogenous in AML12)) (UniProt Q923E4)
T1 sequence: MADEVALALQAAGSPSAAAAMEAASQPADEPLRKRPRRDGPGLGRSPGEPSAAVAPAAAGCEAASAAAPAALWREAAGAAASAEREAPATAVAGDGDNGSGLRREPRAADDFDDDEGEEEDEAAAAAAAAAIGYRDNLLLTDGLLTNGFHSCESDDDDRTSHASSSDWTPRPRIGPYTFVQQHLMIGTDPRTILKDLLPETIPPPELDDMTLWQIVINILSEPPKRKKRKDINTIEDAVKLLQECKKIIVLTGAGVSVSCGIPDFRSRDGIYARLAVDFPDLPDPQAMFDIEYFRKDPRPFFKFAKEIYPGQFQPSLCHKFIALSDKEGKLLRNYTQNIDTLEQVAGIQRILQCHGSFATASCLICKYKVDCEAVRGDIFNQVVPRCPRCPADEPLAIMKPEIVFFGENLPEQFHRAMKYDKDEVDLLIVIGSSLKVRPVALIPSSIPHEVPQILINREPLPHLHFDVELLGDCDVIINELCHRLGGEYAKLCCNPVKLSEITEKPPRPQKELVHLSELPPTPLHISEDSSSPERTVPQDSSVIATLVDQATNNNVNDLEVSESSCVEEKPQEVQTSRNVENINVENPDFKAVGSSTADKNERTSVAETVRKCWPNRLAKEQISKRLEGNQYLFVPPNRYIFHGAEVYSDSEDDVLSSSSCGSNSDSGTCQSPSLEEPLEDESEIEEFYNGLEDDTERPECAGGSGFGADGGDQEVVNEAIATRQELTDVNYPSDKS


Assays:
[1] = target: T1, Sirtuin 1 (Sirt1), endogenous in AML12 cells (mouse (endogenous in AML12)); assay: co-IP; endogenous proteins in extracts of HepG2 or AML12 cells (lysis buffer 50 mM Tris pH 8.0, 5 mM NaCl, 0.5% NP-40); immunoprecipitated overnight at 4 °C with polyclonal anti-Grail or anti-Sirt1 (rabbit IgG as control), Dynabeads Protein G, washed with SNNTE buffer (0.5 M NaCl, 1% NP-40); immunoblot with anti-Grail and anti-Sirt1
[2] = target: Sirtuin 1 (Sirt1), endogenous in HepG2 cells (human (endogenous in HepG2)) (UniProt Q96EB6); assay: as above

binding [1] | binding [2] | Binder
binds | – | Gene related to anergy in lymphocytes (Grail), endogenous in AML12 cells (enzyme, UniProt Q9D304 39-428) AEAVWTAYLNVSWRVPHTGVNRTVWELSEEGVYGQDSPLEPVSGVLVPPDGPGALNACNPHTNFTVPTVWGSTVQVSWLALIQRGGGCTFADKIHLASERGASGAVIFNFPGTRNEVIPMSHPGAGDIVAIMIGNLKGTKILQSIQRGIQVTMVIEVGKKHGPWVNHYSIFFVSVSFFIITAATVGYFIFYSARRLRNARAQSRKQRQLKADAKKAIGKLQLRTLKQGDKEIGPDGDSCAVCIELYKPNDLVRILTCNHIFHKTCVDPWLLEHRTCPMCKCDILKALGIEVDVEDGSVSLQVPVSNEASNTASPHEEDSRSETASSGYASVQGADEPPLEEHAQSANENLQLVNHEANSVAVDVVPHVDNPTFEEDETPDQEAAVREIKS
– | binds | Gene related to anergy in lymphocytes (Grail), endogenous in HepG2 cells (enzyme, UniProt Q8TEB7 39-428) AEAVWTAYLNVSWRVPHTGVNRTVWELSEEGVYGQDSPLEPVAGVLVPPDGPGALNACNPHTNFTVPTVWGSTVQVSWLALIQRGGGCTFADKIHLAYERGASGAVIFNFPGTRNEVIPMSHPGAVDIVAIMIGNLKGTKILQSIQRGIQVTMVIEVGKKHGPWVNHYSIFFVSVSFFIITAATVGYFIFYSARRLRNARAQSRKQRQLKADAKKAIGRLQLRTLKQGDKEIGPDGDSCAVCIELYKPNDLVRILTCNHIFHKTCVDPWLLEHRTCPMCKCDILKALGIEVDVEDGSVSLQVPVSNEISNSASSHEEDNRSETASSGYASVQGTDEPPLEEHVQSTNESLQLVNHEANSVAVDVIPHVDNPTFEEDETPNQETAVREIKS
